In article PMC9253770:
The exact form of at least one protein or probe is not confirmed. For part of these data: At least one verdict was read from the data and is not stated in words by the source.

By UniProt entry, the sequences of proteins in these tests, tags left out. Residues count along the entry.
UniProt P67809, 1-279, stated change not applied: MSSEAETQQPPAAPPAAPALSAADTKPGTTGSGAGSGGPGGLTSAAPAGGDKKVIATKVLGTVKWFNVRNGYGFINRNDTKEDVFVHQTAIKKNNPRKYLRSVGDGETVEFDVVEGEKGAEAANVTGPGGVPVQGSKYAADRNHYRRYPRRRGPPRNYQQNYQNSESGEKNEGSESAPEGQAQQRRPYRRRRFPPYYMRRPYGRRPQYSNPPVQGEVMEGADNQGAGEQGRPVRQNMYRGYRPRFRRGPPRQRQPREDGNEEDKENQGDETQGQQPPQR
UniProt P67809, 1-184, stated change not applied: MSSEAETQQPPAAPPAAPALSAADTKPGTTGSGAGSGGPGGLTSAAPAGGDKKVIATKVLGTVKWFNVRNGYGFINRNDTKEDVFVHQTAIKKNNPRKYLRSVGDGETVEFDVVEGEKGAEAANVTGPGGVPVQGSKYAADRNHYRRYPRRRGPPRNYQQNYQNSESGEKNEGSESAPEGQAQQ

Key:
Experiment in all cases: fluorescence anisotropy
YB-1 (Δ1) = YB-1 (Δ1) (UniProt P67809); details: EC50 within 1100-3100 nM, exact value only in figure; phosphate on the 17-mer (printed as 5'-pAAACGTCAGGGTCTTCC); 50 mM Tris-HCl pH 8.0, 40 mM NaCl, 1 mM DTT, 100 ug/ml BSA, 50 nM FAM-DNA, 25 C (anisotropy); recombinant protein; label: 5'-FAM on strand 1
YB-1 (Δ1-2-3) = YB-1 (Δ1-2-3) (UniProt P67809); details: EC50, upper end of stated range, ~3-fold weaker than FL; phosphate on the 17-mer (printed as 5'-pAAACGTCAGGGTCTTCC); 50 mM Tris-HCl pH 8.0, 40 mM NaCl, 1 mM DTT, 100 ug/ml BSA, 50 nM FAM-DNA, 25 C (anisotropy); recombinant protein; label: 5'-FAM on strand 1
YB-1(FL) = YB-1(FL) (UniProt P67809); details: EC50, lower end of stated range 1100-3100 nM; phosphate on the 17-mer (printed as 5'-pAAACGTCAGGGTCTTCC); 50 mM Tris-HCl pH 8.0, 40 mM NaCl, 1 mM DTT, 100 ug/ml BSA, 50 nM FAM-DNA, 25 C (anisotropy); recombinant protein; residues 1-324; label: 5'-FAM on strand 1

For “CCGCTATTTCAACCCTTTGCAGTCCCAGAAGG / GGGTTGAAATAGCGG / CCTTCTGGGACTGCAAA [Nick (FAM-labeled nicked DNA duplex)]”, the binding result (YB-1 (Δ1)) was “binds”, the half-maximal binding (YB-1 (Δ1-2-3)) was 3.1 µM and the half-maximal binding (YB-1(FL)) was 1100 nM.
